PubChem BioAssay AID504784 – Drosophila RNAi Screening Center – 2011

Purpose: 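Fly genes whose silencing alters how much lipid cells keep in droplets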 (primary screen)
System: Drosophila Kc167 embryonic cells
Reagents: long dsRNA against Drosophila genes, about 250 ng dsRNA per well
Time to read-out: 4 days
Treatment: cells fed 400 µM oleic acid bound to BSA
Measurement: 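Microscope images give a droplet-to-nucleus area ratio, taken as log and converted to a screen-wide B-score; higher values mean greater lipid storage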
Reading the numbers: droplet/nuclear area B-score: higher = more stored lipid (overstorage)
The deposit covers about 17,000 reagents; shown is a random part of those with a known target gene and a result. 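Each column is one replicate's B-score; the combined score over replicates was not deposited, so single values may mislead.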 Names joined by + are all predicted targets of the reagent. Further read-outs or replicates are left out here.

CG11110 [DRSC06037]
- droplet/nuclear area B-score, replicate 1: 1.56

Slob (retired record) [DRSC03436]
- droplet/nuclear area B-score, replicate 1: -2.35

velo [DRSC08841]
- droplet/nuclear area B-score, replicate 1: -0.873

velo [DRSC09698]
- droplet/nuclear area B-score, replicate 1: 3.24

TMEM216 + CG11760 [DRSC14375]
- droplet/nuclear area B-score, replicate 1: 11

Grip75 [DRSC03337]
- droplet/nuclear area B-score, replicate 1: -2.92

IntS3 [DRSC21215]
- droplet/nuclear area B-score, replicate 1: -3.63

Npc2g [DRSC14296]
- droplet/nuclear area B-score, replicate 1: 1.06

Tom20 [DRSC10899]
- droplet/nuclear area B-score, replicate 1: 1.44

Ptp52F [DRSC06717]
- droplet/nuclear area B-score, replicate 1: -1.48

Rim2 [DRSC00520]
- droplet/nuclear area B-score, replicate 1: -0.422

Rim2 [DRSC22699]
- droplet/nuclear area B-score, replicate 1: 0.192

CG3732 [DRSC04410]
- droplet/nuclear area B-score, replicate 1: -3.49

Smug [DRSC15762]
- droplet/nuclear area B-score, replicate 1: 0.164

CG33298 [DRSC02210]
- droplet/nuclear area B-score, replicate 1: -0.242

CG33298 [DRSC02672]
- droplet/nuclear area B-score, replicate 1: 1.69

CG1896 [DRSC15397]
- droplet/nuclear area B-score, replicate 1: -0.387

CG12493 [DRSC08279]
- droplet/nuclear area B-score, replicate 1: -0.957

2 of these entries, reformatted:
| gene | amplicon | droplet/nuclear area B-score, replicate 1 |
| --- | --- | --- |
| Npc2g | DRSC14296 | 1.06 |
| Tom20 | DRSC10899 | 1.44 |

More entries:
Nnf1a [DRSC06394]
- droplet/nuclear area B-score, replicate 1: -1.37

Rbcn-3B [DRSC18574]
- droplet/nuclear area B-score, replicate 1: 0.0169

Ca-alpha1D [DRSC03284]
- droplet/nuclear area B-score, replicate 1: -2.26

CR18166 [DRSC17260]
- droplet/nuclear area B-score, replicate 1: -0.00327

CR18166 [DRSC18147]
- droplet/nuclear area B-score, replicate 1: -2.63

CG32032 [DRSC08961]
- droplet/nuclear area B-score, replicate 1: 0.0548

Or59a [DRSC04631]
- droplet/nuclear area B-score, replicate 1: 1.22

DptA [DRSC07404]
- droplet/nuclear area B-score, replicate 1: -0.14

CG13033 [DRSC09913]
- droplet/nuclear area B-score, replicate 1: -0.34
